These are yes or no findings as the source states them, for the method shown. Some entries that bind do so weakly or less than the wild type. For part of these data: Tags and fused reporters may be left off the sequences shown. Blank lines part the entries; values can stand above or below the molecule they belong to.
Columns and labels:
[1] = molecular target: T1, nGFP-AtRTE1 (Aequorea coerulescens; Arabidopsis) (UniProt F4ITL6); assay: BiFC in leaves of Arabidopsis F1 plants, positive control
T1 sequence (looked up): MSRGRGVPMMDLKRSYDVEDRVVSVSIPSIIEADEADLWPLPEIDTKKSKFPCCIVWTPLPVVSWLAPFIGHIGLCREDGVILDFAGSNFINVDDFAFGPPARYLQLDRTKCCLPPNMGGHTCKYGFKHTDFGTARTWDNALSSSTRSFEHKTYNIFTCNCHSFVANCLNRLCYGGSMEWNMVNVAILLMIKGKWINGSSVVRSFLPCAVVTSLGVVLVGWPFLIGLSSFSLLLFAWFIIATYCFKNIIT

Amino acid sequences for entries named in this document (tags omitted).
UniProt Q9ZWT2: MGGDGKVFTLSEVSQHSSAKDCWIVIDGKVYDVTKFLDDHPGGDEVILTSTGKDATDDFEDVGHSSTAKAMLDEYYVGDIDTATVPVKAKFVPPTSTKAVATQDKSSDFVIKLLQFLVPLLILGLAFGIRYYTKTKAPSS

ZmRTL4-Cub-PLV (maize) = molecular target: T2, ZmRTL4-Cub-PLV (maize); assay: yeast split-ubiquitin two-hybrid
T2 sequence: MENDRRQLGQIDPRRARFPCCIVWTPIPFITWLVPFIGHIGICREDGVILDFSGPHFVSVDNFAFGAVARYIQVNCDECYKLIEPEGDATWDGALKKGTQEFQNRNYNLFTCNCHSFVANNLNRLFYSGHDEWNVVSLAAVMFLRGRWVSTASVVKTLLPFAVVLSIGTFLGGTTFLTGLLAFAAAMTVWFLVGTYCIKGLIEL

AtRTE1-Cub-PLV = molecular target: T3, AtRTE1-Cub-PLV (Arabidopsis, UniProt F4ITL6 1-250); assay: yeast split-ubiquitin two-hybrid
T3 construct: Bait of the mating-based split-ubiquitin yeast two-hybrid system; also called AtRTE1 bait construct; not shown: C-terminal half of ubiquitin (Cub); synthetic transcription factor PLV (protease A-LexA-VP16)
T3 sequence (looked up): T1 sequence (looked up)
Procedure: (B) β-Galactosidase assay for yeast diploid cells expressing AtRTE1-Cub-PLV and various ARGOS-NubG fusion proteins. Yeast cells were cultured in SC-Leu-Trp liquid medium. The β-Galactosidase (β-Gal) activity assay uses […] as a substrate. (C) Growth of yeast diploid cells from the mating of haploid strains containing ARGOS-NubG constructs and negative control […] construct. The plates were incubated at 28° C. for 4 days. (D) Liquid β-Galactosidase assay for yeast diploid cells expressing negative control AtCHX20-Cub-PLV and various ARGOS-NubG fusion proteins.
(A) Growth of yeast diploid cells on SC dropout media to show protein-protein interaction of ZmRTL4 with Arabidopsis and maize ARGOS. The SC-Leu-Trp and SC-Leu-Trp-His-Ade media contain 134 and 375 μM Met, respectively. The plates were incubated at 28° C. for 4 days. (B) β-Galactosidase assay for yeast diploid cells expressing ZmRTE4-Cub-PLV and various ARGOS-NubG fusion proteins. (C) Growth of yeast diploid cells on SC dropout media to show protein-protein interaction of ZmRTL2 with Arabidopsis and maize ARGOS. The SC-Leu-Trp and SC-Leu-Trp-His-Ade media contain 134 μM Met. The plates were incubated at 28° C. for 5 days. (D) β-Galactosidase assay for yeast diploid cells expressing ZmRTE2-Cub-PLV and various ARGOS-NubG fusion proteins. […]

- binding [1]: binds
Molecule: cGFP-AtCb5D (from UniProt Q9ZWT2 1-140)

- binding (ZmRTL4-Cub-PLV (maize)): binds
- binding (AtRTE1-Cub-PLV): binds
B1: AtARGOS-NubG (protein, UniProt Q6NMD6 1-130, looked up, not shown: large carriers)
chain: MIREISNLQKDIINIQDSYSNNRVMDVGRNNRKNMSFRSSPEKSKQELRRSFSAQKRMMIPANYFSLESLFLLVGLTASLLILPLVLPPLPPPPFMLLLVPIGIMVLLVVLAFMPSSHSNANTDVTCNFM

Reference: patent US20170247716A1 (PIONEER HI BRED INTERNATIONAL, published 2017)
